Data reported in PubChem BioAssay AID1487 (National Center for Advancing Translational Sciences (NCATS), 2009).
Some of the results follow. Shown are side measurements of this screen, not its main read-out; they come without a call. The list favours compounds with an active or inconclusive main result. Potencies come from curve fits of mixed quality, noted in brackets.

Test: qHTS Assay for Modulators of Lamin A Splicing
Settings: HeLa LMNA splicing GFP/RFP minigene ratio, 48 h
How it was run: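 S3 HeLa stable clones carrying a lamin A-EGFP splicing minigene plus DsRed2 were seeded at 600 cells/well in Opti-MEM with 2% FBS, pin-dosed and incubated 48 h at 37°C. Acumen cytometry (488 nm) gave the GFP/RFP total-intensity ratio.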

[1] = measured here: RFP viability control channel
[2] = measured here: GFP splicing reporter channel

For `CC(=O)N1N=C(c2ccccc2)CC1c1ccccc1[N+](=O)[O-]` (centres undefined), the AC50 [1] was 0.141 µM [rising, full curve, poor fit].

For `O=C(Cn1cc(/C=N/NC(=O)c2ccccc2Br)c2ccccc21)Nc1ccc(F)cc1`, the AC50 [2] was 11.2 µM [rising, partial curve] and the AC50 [1] was 20 µM [rising, single point].

With `Cc1ccc(S(=O)(=O)N(CC(=O)Nc2ccc(Cl)c([N+](=O)[O-])c2)C2CCCCC2)cc1` the AC50 [1] was 15.8 µM [rising, partial curve].

In the case of `CCCCn1c(=S)[nH]c2cc(S(=O)(=O)N3CCCCC3)ccc21`, the AC50 [1] is reported as 14.1 µM [rising, single point].

In the case of `Cc1ccc(C(=O)Nc2ccc(-n3c(C)nc4ccccc4c3=O)cc2)cc1[N+](=O)[O-]`, the AC50 [1] is reported as 35.5 µM [rising, single point].

For `CCCc1cc(NC(=O)CCl)n(-c2ccccc2)n1`, the AC50 [1] was 35.5 µM [falling, single point].

For `O=C(COC(=O)c1ccc2c(c1[N+](=O)[O-])C(=O)c1ccccc1C2=O)NC1CC1`, the AC50 [2] was 11.2 µM [falling, partial curve, poor fit] and the AC50 [1] was 10 µM [falling, partial curve, poor fit].

With `COc1ccc(CC2(CO)CCN(S(=O)(=O)c3c(C)nn(C)c3C)CC2)cc1` the AC50 [2] was 11.2 µM [falling, partial curve] and the AC50 [1] was 1.26 µM [falling, partial curve].

With `CC(=O)Nc1nc2nc(-c3ccccc3)cc(-c3ccccc3)n2n1` the AC50 [1] was 14.1 µM [rising, partial curve].

For `Cc1nc(NC(=O)C23CC4CC(CC(C4)C2)C3)sc1Cc1ccc2c(c1)OCO2`, the AC50 [2] was 11.2 µM [rising, single point] and the AC50 [1] was 12.6 µM [rising, partial curve].

In the case of `COc1ccc(C(=O)CSc2nn3c(=O)c(C(C)(C)C)nnc3s2)cc1`, the AC50 [2] is reported as 15.8 µM [falling, single point].

In the case of `COc1ccc(-c2cc(CS(=O)(=O)c3ccccc3)on2)cc1`, the AC50 [2] is reported as 0.0501 µM [rising, full curve, poor fit].

With `CCOc1cc(S(=O)(=O)n2cc(-c3ccc(F)cc3)c(N)n2)cc(OCC)c1OCC` the AC50 [1] was 7.08 µM [rising, single point].

For `COc1ccc(C2SCCN2S(=O)(=O)c2ccc(NC(C)=O)cc2)cc1` (centres undefined), the AC50 [1] was 22.4 µM [rising, single point].

For `COc1ccccc1OS(=O)(=O)c1ccc(NC(C)=O)cc1`, the AC50 [2] was 1.12 µM [falling, partial curve, poor fit] and the AC50 [1] was 0.0398 µM [falling, full curve].

With `Cc1cc(=O)oc2ccc(OCC(=O)N(Cc3ccc(F)cc3)Cc3ccco3)cc12` the AC50 [2] was 10 µM [rising, partial curve] and the AC50 [1] was 11.2 µM [rising, single point].

With `Cc1cc(O)c(C(c2cccc(F)c2)N2CCC(C)CC2)c(=O)n1Cc1ccco1` (centres undefined) the AC50 [1] was 22.4 µM [rising, single point].

In the case of `CN(c1cccc(NC(=O)COc2ccc(Cl)cc2Cl)c1)S(C)(=O)=O`, the AC50 [1] is reported as 35.5 µM [rising, single point].

In the case of `C[C@]1(C(=O)NCCc2c[nH]c3ccccc23)C=C[C@@H](Cc2ccccc2)N1C(=O)c1ccccc1`, the AC50 [2] is reported as 1.26 µM [rising, full curve, poor fit] and the AC50 [1] is reported as 4.47 µM [rising, partial curve, poor fit].

For `Brc1ccc2c(c1)C(C1=NCCN1)c1ccccc1CS2` (centres undefined), the AC50 [1] was 2.82 µM [rising, full curve].

In the case of `Oc1ccccc1C=Nc1ccccc1-c1nc2ccccc2[nH]1`, the AC50 [1] is reported as 7.94 µM [rising, partial curve].

With `O=C(CSc1nc2c(c(=O)[nH]1)CN(Cc1ccc(F)cc1)CC2)Nc1ccc(F)cc1` the AC50 [1] was 7.08 µM [rising, partial curve].

With `C=CCSc1nnc2nc3c(nn12)c1cc(C)ccc1n3CC=C` the AC50 [1] was 25.1 µM [rising, single point].

In the case of `CC(C)(C)CC(=O)NCc1cccs1`, the AC50 [2] is reported as 0.447 µM [falling, partial curve].

With `COc1ccc(C(=O)NCC(c2cccnc2)N2CCN(c3ccc(F)cc3)CC2)cc1` (centres undefined) the AC50 [2] was 35.5 µM [falling, single point] and the AC50 [1] was 35.5 µM [falling, partial curve].

With `Cc1cc(C)cc(N2C(=O)c3nccnc3C2=O)c1` the AC50 [1] was 35.5 µM [falling, single point].

With `COc1cccc(OCc2nnc(-c3cccs3)o2)c1` the AC50 [2] was 35.5 µM [rising, single point].

With `CCCCOc1cccc(C(=O)N(Cc2ccco2)C2CCS(=O)(=O)C2)c1` (centres undefined) the AC50 [2] was 0.112 µM [falling, single point].

In the case of `Cc1ccccc1NC(=S)N(CCCN1CCCCC1)Cc1ccco1`, the AC50 [1] is reported as 0.178 µM [rising, full curve, poor fit].

With `Cc1ccc(-n2c(SCc3ccccc3F)nc3[nH]ncc3c2=O)cc1C` the AC50 [2] was 2.82 µM [rising, partial curve].

In the case of `CCN(CC)S(=O)(=O)c1ccc(N2CCCCC2)c(C(=O)Nc2ccccc2N2CCOCC2)c1`, the AC50 [1] is reported as 7.08 µM [rising, partial curve].

In the case of `CCOC(=O)C1=C(C)N(CC(C)C)C(=O)C1`, the AC50 [2] is reported as 20 µM [rising, single point].

For `O=C1CC(c2ccc(Cl)cc2)SC(N(c2ccccc2)c2ccccc2)=N1` (centres undefined), the AC50 [1] was 6.31 µM [rising, single point].

With `COC(=O)CN1C(=S)N(Cc2ccccc2)C(=O)C1CC(=O)Nc1ccc(OC)cc1` (centres undefined) the AC50 [1] was 22.4 µM [rising, partial curve, poor fit].

For `CC1NC(=O)NC1CCCCCC(=O)Nc1ccc(F)cc1` (centres undefined), the AC50 [2] was 0.00398 µM [falling, full curve, poor fit] and the AC50 [1] was 3.55 µM [falling, partial curve, poor fit].

With `C=CCc1ccccc1OCC(O)CN1CCN(c2ccc(OC)cc2)CC1` (centres undefined) the AC50 [1] was 11.2 µM [rising, single point].

In the case of `COC(=O)CN1C(=O)CC(C)(C)Sc2ccccc21`, the AC50 [1] is reported as 35.5 µM [falling, partial curve, poor fit].

For `O=C1CCCN1c1ccc(S(=O)(=O)NCCOc2ccccc2)cc1`, the AC50 [1] was 14.1 µM [rising, partial curve].

In the case of `O=C(COC(=O)c1cc(Cl)nc2ccccc12)c1ccc(Cl)cc1`, the AC50 [2] is reported as 0.0501 µM [falling, full curve, poor fit].

For `CCCC1S/C(=N/N=C/c2ccc(OC)cc2)N(Cc2ccccc2)C1=O` (centres undefined), the AC50 [1] was 15.8 µM [rising, partial curve].

For `COC(=O)c1c(NC(=O)c2ccc(S(=O)(=O)N3CCCCC3)cc2)sc2c1CCN(C)C2`, the AC50 [2] was 25.1 µM [rising, partial curve, poor fit] and the AC50 [1] was 35.5 µM [falling, single point].

For `Cc1cccc(-c2nc3sc(C)cc3c(=O)o2)c1`, the AC50 [2] was 0.02 µM [rising, full curve, poor fit].

For `O=C(Nc1nccs1)c1cc(N2CCOCC2)nc2ccccc12`, the AC50 [1] was 2.51 µM [rising, partial curve, poor fit].

In the case of `O=C(NC12CC3CC(CC(C3)C1)C2)c1ccc(-c2ccccc2Cl)o1`, the AC50 [1] is reported as 20 µM [falling, partial curve].

In the case of `CCc1c(C)[nH]c2c1C(=O)[C@H](CN1CCOCC1)CC2`, the AC50 [2] is reported as 1 µM [falling, full curve] and the AC50 [1] is reported as 1.26 µM [falling, full curve].

For `N#CCCn1cc(C(=O)Nc2ccc([N+](=O)[O-])cc2)c(-c2cc3ccccc3o2)n1`, the AC50 [2] was 10 µM [falling, partial curve] and the AC50 [1] was 20 µM [falling, partial curve].

In the case of `O=C(N/N=C/c1c[nH]c2ccccc12)c1cc(-c2cccc3ccccc23)n[nH]1`, the AC50 [1] is reported as 11.2 µM [rising, partial curve, poor fit].

In the case of `CC(CCc1ccccc1)NC(=O)c1nnc(Cc2ccc(Cl)cc2)o1` (centres undefined), the AC50 [1] is reported as 35.5 µM [rising, single point].

For `COCCn1c(-c2ccccc2)cnc1N`, the AC50 [1] was 35.5 µM [falling, single point].

In the case of `COc1cccc(C(=O)C2CCCN(C/C=C/c3ccccc3OC)C2)c1` (centres undefined), the AC50 [2] is reported as 15.8 µM [falling, single point] and the AC50 [1] is reported as 14.1 µM [falling, partial curve, poor fit].

In the case of `CC(C)=CCc1c(O)ccc(C(=O)Cc2ccccc2)c1O`, the AC50 [2] is reported as 14.1 µM [rising, single point] and the AC50 [1] is reported as 17.8 µM [rising, single point].

For `Cc1ccc(NC(=O)N(Cc2ccc3c(c2)OCO3)Cc2cc3cc4c(cc3[nH]c2=O)OCCO4)cc1`, the AC50 [1] was 0.00891 µM [rising, full curve, poor fit].

With `CCCc1cc(=O)oc2cc(C)cc(OC(=O)c3ccco3)c12` the AC50 [2] was 10 µM [rising, partial curve] and the AC50 [1] was 15.8 µM [rising, single point].

With `Fc1ccc(-n2ncc3c(Nc4ccc(Oc5ccc(Cl)cc5)cc4)ncnc32)cc1` the AC50 [2] was 35.5 µM [falling, single point] and the AC50 [1] was 35.5 µM [falling, single point].

For `Cc1ccc(-n2ncc3c(NCCc4ccccc4)ncnc32)cc1`, the AC50 [2] was 0.01 µM [falling, full curve, poor fit] and the AC50 [1] was 0.01 µM [falling, full curve, poor fit].

In the case of `CCN1/C(=C/c2cc[n+](CCCS(=O)(=O)[O-])c3ccccc23)Sc2ccccc21`, the AC50 [2] is reported as 0.0501 µM [falling, full curve] and the AC50 [1] is reported as 0.0631 µM [falling, full curve, poor fit].
